From paper PMC7939570, “Discovery of potent histone deacetylase inhibitors with modified phenanthridine caps” (Journal of Enzyme Inhibition and Medicinal Chemistry, 2021)
Several values for one entry are separate records, joined by “and”; a condition that tells them apart may be missing. Identical values can stand only once.

Tested on: Hela nucleus extract containing a mixture of HDAC isoforms
Test: HDAC enzyme inhibitory assay with Hela nucleus extract
Format: biochemical
Settings: 1 µM, mean of three experiments
Protocol: The HDAC enzyme inhibitory activities of synthesised compounds were investigated by utilising Hela nucleus extract containing a mixture of HDAC isoforms. Percentage inhibitory rate was used to determine the activity of tested compounds (Tables 1 and 2). The Fa series compounds were firstly synthesised for the activity screening. […] To investigate whether aromatic linker could improve the inhibitory activities, structural modifications were performed on current molecules.

## O=C(CCCCCCC(=O)Nc1ccccc1)NO [SAHA, Vorinostat, reference compound]
  HDACs percentage inhibitory rate: 58.27 ± 6.06% and 56.23 ± 2.12%
